# Percent effect of library compounds

By UniProt entry, the sequences of proteins in these tests, tags left out.
UniProt P9WFT3, whole entry: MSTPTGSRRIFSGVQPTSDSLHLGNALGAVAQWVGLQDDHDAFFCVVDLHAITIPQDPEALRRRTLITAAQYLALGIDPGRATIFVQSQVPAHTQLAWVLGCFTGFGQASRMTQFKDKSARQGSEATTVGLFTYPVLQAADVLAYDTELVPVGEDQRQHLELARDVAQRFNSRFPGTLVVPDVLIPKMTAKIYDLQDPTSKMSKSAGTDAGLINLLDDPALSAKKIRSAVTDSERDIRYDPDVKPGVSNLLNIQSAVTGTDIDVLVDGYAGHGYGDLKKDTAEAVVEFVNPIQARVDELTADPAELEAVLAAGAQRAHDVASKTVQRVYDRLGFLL

A: 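Cell assay of Leishmania donovani living inside macrophages; the read-out is not stated. Tested at 30 µM. Direction is inferred from retests: higher values go with stronger inhibition. About 69,000 compounds were tested under these conditions; 1.5% (about 1,000) showed 50% or more at least once.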
B: 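Enzyme assay of tryptophanyl-tRNA synthetase; the read-out is not stated. Target: Tryptophan-tRNA ligase, Mycobacterium tuberculosis (UniProt P9WFT3). Tested at 10 µM. Higher most likely means stronger inhibition; the record gives no direction and few retests gave an IC50. About 65,000 compounds were tested under these conditions; 0.098% (about 64) showed 50% or more at least once.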
C: 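Whole-parasite assay of Trypanosoma brucei over 72 hours; the read-out is not stated. Concentration: 30 µM. The record gives no direction; compounds that gave an IC50 in retests scored well above the rest, so higher reads as stronger inhibition. Values scatter widely below zero; nearly all retest evidence comes from the higher of the two concentrations used. Size under these conditions: about 64,000 compounds, about 940 of them at 50% or above in at least one test.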

Each number is a percent effect as filed.
The record does not define 0% and 100%; most values in the screen are far below 50% and negative numbers occur (in some assays of this library far below -100).
This is an unselected part of the compounds tested.
Two or more numbers in one place are separate tests of the same structure; such repeats can differ widely.
A dash means the value is not listed here; it may have been measured.

{"compound": "CC(C)NC(=O)c1ccc2nnc(C3CCN(S(C)(=O)=O)C3)n2c1", "stereo": "centres undefined", "A": 33.79, "B": 0.08376, "C": -32.04}
{"compound": "c1csc(-c2noc(C3CN(Cc4ccc5c(c4)CCO5)C3)n2)c1", "B": -1.748}
{"compound": "[H][C@]12CC[C@]([H])(CN(c3ncccc3F)C1)N(CC=C(C)C)C2=O", "A": "0.9935 and 7.584", "C": -6.371}
{"compound": "CN(Cc1cnc(N)nc1)C(=O)C1CC(=O)N(Cc2ccncc2)C1", "stereo": "centres undefined", "A": 8.061, "B": 1.495, "C": -33.8}
{"compound": "CN1C(=O)CC2(CCN(S(=O)(=O)C3CC3)CC2)c2ccccc21", "A": 3.224, "B": -4.854, "C": -61.91}
{"compound": "Fc1ccccc1-c1cc(N2[C@@H]3CC[C@H]2CNC3)n2nccc2n1", "B": 1.016}
{"compound": "Cc1cc(C(=O)NCCN2CCCc3ccccc32)[nH]n1", "A": -23.01, "B": -3.236, "C": -53.32}
{"compound": "CCn1nc2c(cc1=O)CN(Cc1nc(-c3ccco3)no1)CC2", "A": 20.26, "B": -0.52}
{"compound": "O=c1[nH]c2cc3c(cc2cc1CN1CCCC1c1ccccn1)OCO3", "stereo": "centres undefined", "A": -0.7299, "B": -1.569, "C": 13.62}
{"compound": "COc1ccc(OCCCN2CCOC(Cn3cccn3)C2)cc1", "stereo": "centres undefined", "A": -7.759, "B": 2.242, "C": 10.22}
{"compound": "CC[C@@H]1C[C@H](C(F)(F)F)n2nc(C3CCN(S(=O)(=O)CC)CC3)cc2N1", "A": -4.522, "C": -37.35}
{"compound": "COCCNS(=O)(=O)c1cccc2c1CN(C(=O)c1cnccn1)CC2", "A": -14.49, "B": -0.5622, "C": -53.75}
{"compound": "O=C(O)C(F)(F)F.c1ccc(CN2CCCn3nnc(Cn4cccc4)c3C2)nc1", "A": -22.64}
{"compound": "Cc1nccn1-c1ccc(C(C)NCc2ncc[nH]2)cc1", "stereo": "centres undefined", "A": 8.942, "B": 1.636, "C": -26.64}
{"compound": "COc1ccc(S(=O)(=O)N2CCOC(C)(C(N)=O)C2)cc1", "stereo": "centres undefined", "A": 23.61, "B": -4.373, "C": -6.746}
{"compound": "CCn1ccnc1CNCC1CCCN1c1cc(NC)ncn1", "stereo": "centres undefined", "A": -7.334, "B": -1.436, "C": 0.1733}
{"compound": "CCCS(=O)(=O)NCc1cccnc1OCc1ccccc1", "A": 1.099, "B": -3.436, "C": -10.31}
{"compound": "CNc1cncc(C2CCCN2C(=O)Cn2c(=O)oc3ccccc32)n1", "stereo": "centres undefined", "A": "18.33 and 12", "C": -3.651}
{"compound": "CC(C)(N)C(=O)N1CCC(c2nccnc2Oc2ccccc2F)CC1", "A": "-14.2 and 17.51", "C": -18.93}
{"compound": "[H][C@]12CC[C@]([H])(CN(c3ncnc4ccsc34)C1)N(CC1CC1)C2=O", "A": 23.25, "C": -46.37}
{"compound": "Cc1noc(C)c1NS(=O)(=O)c1cc(C(=O)O)cc(Cl)c1Cl", "A": 19.74, "B": 0.09551, "C": -4.273}
{"compound": "O=C1CSC(c2ccc3c(c2)OCO3)c2cnn(C3CCCCC3)c2N1", "stereo": "centres undefined", "A": -7.722, "B": -5.831, "C": 6.351}

The last 3 entries again:

compound	A	B	C
[H][C@]12CC[C@]([H])(CN(c3ncnc4ccsc34)C1)N(CC1CC1)C2=O	23.25	-	-46.37
Cc1noc(C)c1NS(=O)(=O)c1cc(C(=O)O)cc(Cl)c1Cl	19.74	0.09551	-4.273
O=C1CSC(c2ccc3c(c2)OCO3)c2cnn(C3CCCCC3)c2N1 (centres undefined)	-7.722	-5.831	6.351

Source: ChEMBL document CHEMBL3988442, “University of Dundee, Small-Polar-MMV Screening Library” (2021).